Data on two molecules can be found in US20230357391A1 (EXELIXIS, published 2023).

Chains of the proteins cited; added tags and fusions are not shown. Lines headed by an entry give the natural chain unless they say otherwise; changes in a name come on top.
UniProt Q08722: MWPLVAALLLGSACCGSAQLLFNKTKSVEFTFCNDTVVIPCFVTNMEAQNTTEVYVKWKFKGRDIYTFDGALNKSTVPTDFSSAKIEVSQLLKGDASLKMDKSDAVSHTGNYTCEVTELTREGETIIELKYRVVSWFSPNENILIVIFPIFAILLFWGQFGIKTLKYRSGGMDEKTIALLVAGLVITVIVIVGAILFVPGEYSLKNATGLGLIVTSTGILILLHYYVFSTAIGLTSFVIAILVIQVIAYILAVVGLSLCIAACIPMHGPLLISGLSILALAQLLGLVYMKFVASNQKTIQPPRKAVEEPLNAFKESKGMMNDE

These are yes or no findings as the source states them, for the method shown. Some results given as binding are weak or reduced against the parent protein; the word gives no strength.

The target of one assay is T1, mouse CD47 (mouse) (UniProt Q61735).
T1 sequence (biotinylated, looked up): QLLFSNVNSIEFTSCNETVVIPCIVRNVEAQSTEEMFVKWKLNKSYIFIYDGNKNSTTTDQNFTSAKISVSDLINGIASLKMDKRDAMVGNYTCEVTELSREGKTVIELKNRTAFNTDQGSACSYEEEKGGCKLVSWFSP
Put plainly: BLI (Octet), mouse CD47 on sensor; Y = mouse cross-reactivity. (In general: In BLI a coated tip is dipped into the sample, and binding shifts an interference pattern.)

The target of assay [1] is human CD47 on cells (human) (UniProt Q08722). Put plainly: flow cytometry, MDA-MB-231 cells.
The target in assay [2] is extracellular domain of human CD47, biotinylated (human) (UniProt Q08722). The experiment in a line: BLI (Octet), qualitative.
Assay [3] deals with human CD47 on cells (human) (UniProt Q08722). Put plainly: flow cytometry on MDA-MB-231 cells, AF488 goat anti-human IgG Fab as secondary. A general note: In flow cytometry, cells or beads pass a laser one at a time.

B1: Antibody C40 (antibody, human IgG1, kappa, V domains shown)
VH: EVQLVESGGGLVQPGGSLRLSCAASGFTFSYYYIHWVRQAPGKGLEWVAWIDPYGHSTTYADSVKGRFTISADTSKNTAYLQMNSLRAEDTAVYYCARGGRGAMDYWGQGTLVTAST
VL: DIQMTQSPSSLSASVGDRVTITCRASQSVSSAVAWYQQKPGKAPKLLIYSASSLYSGVPSRFSGSRSGTDFTLTISSLQPEDFATYYCQQRYSSLLTFGQGTKVEIKR
notes: Full length IgG
For the molecule B1, the binding result in the assay with mouse CD47 (mouse) is given as “binds”.

B2: Antibody C59 (antibody, human IgG1, kappa, V domains shown)
VH: EVQLVESGGGLVQPGGSLRLSCAASGFTFTSYYIHWVRQAPGKGLEWVAYIDSKHGTTQYADSVKGRFTISADTSKNTAYLQMNSLRAEDTAVYYCARGGRSAMDYWGQGTLVTAST
VL: DIQMTQSPSSLSASVGDRVTITCRASQSVSSAVAWYQQKPGKAPKLLIYSASSLYSGVPSRFSGSRSGTDFTLTISSLQPEDFATYYCQQRTTSLLTFGQGTKVEIKR
notes: Full length IgG
As to B2, the binding entry in assay [1], in assay [2] and in assay [3] was “binds” each time.
